Drawing on PMC11288429, this text covers binding for 3 substances.

The chains behind the UniProt entries cited, without tags or fusion partners.
UniProt P42227: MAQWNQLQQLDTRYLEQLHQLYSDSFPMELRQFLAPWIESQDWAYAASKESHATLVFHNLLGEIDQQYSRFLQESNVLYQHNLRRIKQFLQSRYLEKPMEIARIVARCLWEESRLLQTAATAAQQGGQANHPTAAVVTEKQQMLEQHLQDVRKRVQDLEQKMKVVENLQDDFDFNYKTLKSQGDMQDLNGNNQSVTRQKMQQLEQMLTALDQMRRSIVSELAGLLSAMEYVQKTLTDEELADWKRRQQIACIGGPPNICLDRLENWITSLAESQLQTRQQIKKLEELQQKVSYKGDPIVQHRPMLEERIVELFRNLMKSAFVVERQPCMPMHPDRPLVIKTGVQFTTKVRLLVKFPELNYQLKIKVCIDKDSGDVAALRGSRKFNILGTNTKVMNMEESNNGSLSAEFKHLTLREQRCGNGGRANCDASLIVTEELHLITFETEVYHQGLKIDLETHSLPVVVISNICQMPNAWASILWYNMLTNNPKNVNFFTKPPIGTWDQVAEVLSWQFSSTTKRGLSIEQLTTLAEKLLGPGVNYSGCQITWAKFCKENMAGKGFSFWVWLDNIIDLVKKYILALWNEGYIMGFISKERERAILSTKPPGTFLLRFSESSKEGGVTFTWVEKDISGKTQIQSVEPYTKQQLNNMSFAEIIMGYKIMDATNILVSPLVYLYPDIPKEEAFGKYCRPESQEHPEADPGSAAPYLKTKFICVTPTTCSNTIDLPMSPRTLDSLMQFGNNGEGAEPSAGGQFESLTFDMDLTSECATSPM
UniProt Q8C863: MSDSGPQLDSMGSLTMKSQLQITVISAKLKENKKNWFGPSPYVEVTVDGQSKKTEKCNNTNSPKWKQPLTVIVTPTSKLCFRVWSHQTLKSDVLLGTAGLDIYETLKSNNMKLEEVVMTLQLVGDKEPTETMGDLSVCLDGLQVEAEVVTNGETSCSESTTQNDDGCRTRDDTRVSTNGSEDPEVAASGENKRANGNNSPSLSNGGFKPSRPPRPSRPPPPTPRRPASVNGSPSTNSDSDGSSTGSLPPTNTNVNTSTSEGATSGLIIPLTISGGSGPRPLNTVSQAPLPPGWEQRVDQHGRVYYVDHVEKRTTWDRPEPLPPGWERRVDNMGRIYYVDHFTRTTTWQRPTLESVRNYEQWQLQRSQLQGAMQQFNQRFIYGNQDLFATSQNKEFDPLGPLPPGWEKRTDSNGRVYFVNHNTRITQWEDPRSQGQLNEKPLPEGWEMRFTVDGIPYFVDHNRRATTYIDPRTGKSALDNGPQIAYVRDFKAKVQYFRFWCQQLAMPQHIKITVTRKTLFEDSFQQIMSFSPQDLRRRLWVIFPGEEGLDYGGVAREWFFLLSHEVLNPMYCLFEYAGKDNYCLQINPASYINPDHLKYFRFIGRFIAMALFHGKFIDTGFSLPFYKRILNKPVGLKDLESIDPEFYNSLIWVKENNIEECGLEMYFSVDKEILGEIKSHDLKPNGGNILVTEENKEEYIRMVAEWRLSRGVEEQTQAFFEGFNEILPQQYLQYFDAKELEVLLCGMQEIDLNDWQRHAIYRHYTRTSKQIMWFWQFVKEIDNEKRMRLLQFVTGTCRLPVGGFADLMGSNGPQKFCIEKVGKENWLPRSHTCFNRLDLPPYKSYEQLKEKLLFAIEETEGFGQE
UniProt Q9DBH0: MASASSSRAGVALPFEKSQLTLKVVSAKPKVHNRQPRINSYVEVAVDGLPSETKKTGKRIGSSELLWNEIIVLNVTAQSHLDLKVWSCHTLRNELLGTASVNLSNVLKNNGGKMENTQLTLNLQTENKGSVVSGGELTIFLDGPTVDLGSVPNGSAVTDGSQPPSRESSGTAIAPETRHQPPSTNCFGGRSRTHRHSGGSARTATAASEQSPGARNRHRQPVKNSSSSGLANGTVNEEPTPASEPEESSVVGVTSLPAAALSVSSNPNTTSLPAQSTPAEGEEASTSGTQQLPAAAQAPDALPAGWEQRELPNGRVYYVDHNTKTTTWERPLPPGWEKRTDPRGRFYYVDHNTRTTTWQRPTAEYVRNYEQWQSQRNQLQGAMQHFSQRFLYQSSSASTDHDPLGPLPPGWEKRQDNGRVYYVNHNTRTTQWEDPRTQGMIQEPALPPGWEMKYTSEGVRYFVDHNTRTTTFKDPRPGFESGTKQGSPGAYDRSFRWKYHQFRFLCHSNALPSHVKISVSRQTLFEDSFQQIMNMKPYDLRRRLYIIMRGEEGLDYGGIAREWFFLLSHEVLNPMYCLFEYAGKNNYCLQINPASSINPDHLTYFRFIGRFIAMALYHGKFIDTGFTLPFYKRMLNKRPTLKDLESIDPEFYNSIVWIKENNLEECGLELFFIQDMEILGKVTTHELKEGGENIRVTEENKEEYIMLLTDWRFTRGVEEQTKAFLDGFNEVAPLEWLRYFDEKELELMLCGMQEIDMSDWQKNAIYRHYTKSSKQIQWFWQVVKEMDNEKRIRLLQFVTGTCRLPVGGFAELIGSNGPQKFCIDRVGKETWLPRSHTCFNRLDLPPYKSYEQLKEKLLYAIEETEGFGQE

Results are given in words; binding and its absence hold for the method and conditions named. Binding seen in cells or lysates may run through a third protein. Some binding calls cover weakened binding; strength is not graded here.

The target of experiment [1] is signal transducers and activators of transcription 3 (STAT3) (mouse (endogenous in splenic CD4+ T cells)) (UniProt P42227). The experiment is described as follows: co-IP; endogenous proteins; lysates of splenic CD4+ T cells from WT and RACK1 KO mice at day 5 of P. yoelii 17XNL infection; Co-IP lysis buffer (10 mM Tris-Cl pH7.5, 2 mM EDTA, 1% NP-40, 150 mM NaCl); primary antibody (anti-RACK1 or anti-STAT3) and Protein A/G-plus agarose, 4°C, 4 h; immunoblot. (In general: In western blotting, separated proteins are transferred to a membrane and probed.)

In experiment [2] the target is Flag-tagged Itch (UniProt Q8C863). The experiment is described as follows: co-IP; 293T cells co-transfected with Myc-tagged Stat3 and Flag-tagged Wwp2 (or Itch); IP with anti-Flag antibody, IB with anti-Myc antibody.
The target of experiment [3] is Flag-tagged Wwp2 (UniProt Q9DBH0). The experiment is described as above.

For “Itch (from UniProt Q8C863 1-864) (enzyme)”, the binding result in experiment [1] was “binds”.

Take “Myc-tagged Stat3 (from UniProt P42227 1-770)”: the binding result in experiment [2] and in experiment [3] was “binds” each time.

For the substance “Wwp2 (from UniProt Q9DBH0 1-870) (enzyme)”, the binding result in experiment [1] is listed as “binds”.
